Our source for the log2 fold change values is the supplement of paper PMC10849652.

The chains behind the UniProt entries cited, without tags or fusion partners. Where a name states a change or a piece, a line headed by the entry shows the natural chain unless it says otherwise.
UniProt Q96I36: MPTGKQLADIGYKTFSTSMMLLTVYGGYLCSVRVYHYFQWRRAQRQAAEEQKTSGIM
UniProt Q16526: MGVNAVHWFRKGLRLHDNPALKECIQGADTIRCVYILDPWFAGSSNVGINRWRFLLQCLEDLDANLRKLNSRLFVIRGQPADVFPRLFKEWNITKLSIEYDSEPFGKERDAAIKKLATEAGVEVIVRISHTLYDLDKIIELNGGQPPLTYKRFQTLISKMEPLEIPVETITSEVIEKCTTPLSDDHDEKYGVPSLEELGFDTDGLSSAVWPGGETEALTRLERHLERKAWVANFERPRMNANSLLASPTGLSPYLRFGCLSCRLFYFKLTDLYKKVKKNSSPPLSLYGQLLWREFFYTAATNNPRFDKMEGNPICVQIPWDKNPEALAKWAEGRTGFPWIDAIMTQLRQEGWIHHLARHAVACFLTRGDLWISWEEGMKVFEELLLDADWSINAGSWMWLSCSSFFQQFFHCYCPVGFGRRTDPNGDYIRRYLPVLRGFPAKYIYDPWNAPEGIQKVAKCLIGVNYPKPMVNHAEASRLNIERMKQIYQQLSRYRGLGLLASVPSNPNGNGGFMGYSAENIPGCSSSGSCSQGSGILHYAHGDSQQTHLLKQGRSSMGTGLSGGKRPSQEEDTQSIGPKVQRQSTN
UniProt P15169: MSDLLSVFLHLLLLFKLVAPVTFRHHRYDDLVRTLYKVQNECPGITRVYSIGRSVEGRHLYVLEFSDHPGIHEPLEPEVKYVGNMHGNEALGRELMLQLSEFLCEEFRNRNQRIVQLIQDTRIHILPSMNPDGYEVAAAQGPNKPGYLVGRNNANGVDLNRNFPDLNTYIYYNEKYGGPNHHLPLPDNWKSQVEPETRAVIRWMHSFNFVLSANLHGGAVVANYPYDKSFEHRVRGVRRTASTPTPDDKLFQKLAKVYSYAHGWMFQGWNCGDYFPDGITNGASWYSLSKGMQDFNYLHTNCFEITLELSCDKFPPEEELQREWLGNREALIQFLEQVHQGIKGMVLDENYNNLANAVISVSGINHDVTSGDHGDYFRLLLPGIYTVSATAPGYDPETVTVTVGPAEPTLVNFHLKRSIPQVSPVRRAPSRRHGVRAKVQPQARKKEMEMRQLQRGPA
UniProt Q9UBI1, whole entry, looked up: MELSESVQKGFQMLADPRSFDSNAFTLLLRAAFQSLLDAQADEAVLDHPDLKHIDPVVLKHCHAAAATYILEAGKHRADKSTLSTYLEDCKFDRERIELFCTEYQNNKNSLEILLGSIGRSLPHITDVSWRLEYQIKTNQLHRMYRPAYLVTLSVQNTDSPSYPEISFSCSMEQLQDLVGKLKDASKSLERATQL
UniProt Q9UI42: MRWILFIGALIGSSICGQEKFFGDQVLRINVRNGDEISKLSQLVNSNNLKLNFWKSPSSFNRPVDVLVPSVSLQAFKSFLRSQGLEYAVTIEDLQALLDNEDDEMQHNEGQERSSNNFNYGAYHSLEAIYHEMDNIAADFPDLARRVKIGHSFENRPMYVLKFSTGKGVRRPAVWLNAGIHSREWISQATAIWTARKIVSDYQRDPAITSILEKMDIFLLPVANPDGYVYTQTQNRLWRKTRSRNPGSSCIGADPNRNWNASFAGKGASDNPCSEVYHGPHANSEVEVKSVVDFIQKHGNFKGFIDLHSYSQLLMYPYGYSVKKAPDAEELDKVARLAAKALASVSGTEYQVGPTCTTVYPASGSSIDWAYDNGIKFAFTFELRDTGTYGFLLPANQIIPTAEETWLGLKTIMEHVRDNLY
UniProt Q6UUV7: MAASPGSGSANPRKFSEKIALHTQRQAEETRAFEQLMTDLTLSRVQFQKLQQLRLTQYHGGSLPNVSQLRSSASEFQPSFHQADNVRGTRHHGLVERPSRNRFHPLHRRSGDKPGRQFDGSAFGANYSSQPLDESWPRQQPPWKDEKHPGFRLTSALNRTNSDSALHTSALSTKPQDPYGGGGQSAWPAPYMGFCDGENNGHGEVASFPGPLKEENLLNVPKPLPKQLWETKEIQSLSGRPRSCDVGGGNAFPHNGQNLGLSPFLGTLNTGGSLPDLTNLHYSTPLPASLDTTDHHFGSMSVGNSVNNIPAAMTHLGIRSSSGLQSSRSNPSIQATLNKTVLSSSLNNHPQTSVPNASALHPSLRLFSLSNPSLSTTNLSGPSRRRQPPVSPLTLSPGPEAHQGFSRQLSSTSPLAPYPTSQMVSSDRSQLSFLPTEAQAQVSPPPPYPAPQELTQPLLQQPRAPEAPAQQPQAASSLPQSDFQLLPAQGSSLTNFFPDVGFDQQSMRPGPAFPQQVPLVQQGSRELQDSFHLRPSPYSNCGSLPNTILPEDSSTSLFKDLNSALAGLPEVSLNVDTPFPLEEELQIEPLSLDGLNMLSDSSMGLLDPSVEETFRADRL
UniProt P54108: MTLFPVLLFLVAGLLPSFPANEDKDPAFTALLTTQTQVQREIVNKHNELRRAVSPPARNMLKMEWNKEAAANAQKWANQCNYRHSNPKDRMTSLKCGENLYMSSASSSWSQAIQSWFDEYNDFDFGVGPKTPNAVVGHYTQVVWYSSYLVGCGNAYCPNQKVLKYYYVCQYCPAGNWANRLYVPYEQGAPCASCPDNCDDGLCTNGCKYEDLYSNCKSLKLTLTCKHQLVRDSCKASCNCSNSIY
UniProt Q49AN0: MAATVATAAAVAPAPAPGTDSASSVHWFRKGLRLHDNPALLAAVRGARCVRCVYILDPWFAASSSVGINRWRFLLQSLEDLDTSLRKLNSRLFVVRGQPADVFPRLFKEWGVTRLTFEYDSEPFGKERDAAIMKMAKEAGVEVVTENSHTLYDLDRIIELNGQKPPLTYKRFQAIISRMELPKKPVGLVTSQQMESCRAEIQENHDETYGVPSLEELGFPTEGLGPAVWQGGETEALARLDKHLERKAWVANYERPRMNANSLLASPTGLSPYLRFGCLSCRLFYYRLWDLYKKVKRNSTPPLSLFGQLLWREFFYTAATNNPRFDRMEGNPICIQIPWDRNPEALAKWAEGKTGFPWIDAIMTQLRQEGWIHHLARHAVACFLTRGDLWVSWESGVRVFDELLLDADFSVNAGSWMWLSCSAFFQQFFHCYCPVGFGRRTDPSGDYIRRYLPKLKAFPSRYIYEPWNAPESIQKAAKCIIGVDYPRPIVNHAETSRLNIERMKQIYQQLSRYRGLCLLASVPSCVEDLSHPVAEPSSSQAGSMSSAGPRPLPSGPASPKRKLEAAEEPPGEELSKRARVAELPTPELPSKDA
UniProt Q86T23: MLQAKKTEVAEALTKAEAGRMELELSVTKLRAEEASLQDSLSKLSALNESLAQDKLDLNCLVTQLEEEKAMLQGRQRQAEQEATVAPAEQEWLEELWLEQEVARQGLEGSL
UniProt O75575: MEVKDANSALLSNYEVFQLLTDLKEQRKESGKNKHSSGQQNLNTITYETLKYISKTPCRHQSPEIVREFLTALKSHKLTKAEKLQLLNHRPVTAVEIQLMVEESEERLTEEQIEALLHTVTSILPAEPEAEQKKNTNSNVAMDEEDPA
UniProt Q7Z4G1, whole entry, looked up: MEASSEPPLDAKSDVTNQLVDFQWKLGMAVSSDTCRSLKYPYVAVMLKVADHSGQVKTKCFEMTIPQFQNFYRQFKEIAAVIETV
UniProt Q8N6G5: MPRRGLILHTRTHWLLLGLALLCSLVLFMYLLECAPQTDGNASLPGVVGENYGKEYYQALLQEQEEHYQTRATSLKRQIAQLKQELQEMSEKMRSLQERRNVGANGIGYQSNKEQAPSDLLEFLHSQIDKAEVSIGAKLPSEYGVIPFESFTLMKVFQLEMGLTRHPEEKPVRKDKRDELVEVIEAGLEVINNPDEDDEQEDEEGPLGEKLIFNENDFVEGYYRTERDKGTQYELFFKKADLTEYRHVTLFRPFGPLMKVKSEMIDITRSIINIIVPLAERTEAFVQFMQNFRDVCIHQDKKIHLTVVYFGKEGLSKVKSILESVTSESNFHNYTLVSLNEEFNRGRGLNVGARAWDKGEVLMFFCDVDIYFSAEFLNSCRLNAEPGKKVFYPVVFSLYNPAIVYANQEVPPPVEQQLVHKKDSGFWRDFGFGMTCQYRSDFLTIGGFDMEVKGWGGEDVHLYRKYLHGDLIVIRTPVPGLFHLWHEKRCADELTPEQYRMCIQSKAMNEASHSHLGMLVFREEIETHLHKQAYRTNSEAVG
UniProt Q9Y3A0: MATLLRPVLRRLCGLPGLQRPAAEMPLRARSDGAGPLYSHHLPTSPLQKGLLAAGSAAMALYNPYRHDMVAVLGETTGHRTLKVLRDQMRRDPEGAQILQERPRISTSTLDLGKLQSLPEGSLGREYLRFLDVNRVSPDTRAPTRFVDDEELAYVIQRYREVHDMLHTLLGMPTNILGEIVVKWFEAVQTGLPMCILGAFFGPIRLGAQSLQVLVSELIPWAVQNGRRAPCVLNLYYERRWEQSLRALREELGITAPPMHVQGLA
UniProt Q2VPA4, whole entry, looked up: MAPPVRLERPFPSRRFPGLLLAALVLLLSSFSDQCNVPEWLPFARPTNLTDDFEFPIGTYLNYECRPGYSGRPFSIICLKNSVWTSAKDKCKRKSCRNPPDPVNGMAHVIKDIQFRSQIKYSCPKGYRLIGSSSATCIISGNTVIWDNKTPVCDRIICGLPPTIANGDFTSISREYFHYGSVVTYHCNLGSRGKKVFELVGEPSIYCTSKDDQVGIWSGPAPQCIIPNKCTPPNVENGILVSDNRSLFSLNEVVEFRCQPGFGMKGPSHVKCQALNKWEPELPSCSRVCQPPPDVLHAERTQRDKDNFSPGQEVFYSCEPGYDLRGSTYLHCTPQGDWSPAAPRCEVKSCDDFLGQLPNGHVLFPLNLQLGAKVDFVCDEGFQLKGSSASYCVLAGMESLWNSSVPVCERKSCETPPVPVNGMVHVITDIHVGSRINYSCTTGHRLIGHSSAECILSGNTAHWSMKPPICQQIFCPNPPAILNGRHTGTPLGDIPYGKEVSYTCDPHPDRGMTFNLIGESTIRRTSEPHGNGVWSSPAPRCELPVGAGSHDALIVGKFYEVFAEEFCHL
UniProt P29373: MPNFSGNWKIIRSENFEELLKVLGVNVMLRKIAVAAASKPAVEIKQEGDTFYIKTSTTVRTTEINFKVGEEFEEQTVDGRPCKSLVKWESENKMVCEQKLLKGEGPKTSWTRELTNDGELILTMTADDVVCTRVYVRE
UniProt Q8N668, whole entry, looked up: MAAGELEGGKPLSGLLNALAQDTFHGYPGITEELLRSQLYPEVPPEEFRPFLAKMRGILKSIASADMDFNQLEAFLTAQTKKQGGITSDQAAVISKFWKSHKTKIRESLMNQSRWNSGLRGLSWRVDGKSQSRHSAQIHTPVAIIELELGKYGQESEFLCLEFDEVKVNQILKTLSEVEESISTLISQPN
UniProt P00450: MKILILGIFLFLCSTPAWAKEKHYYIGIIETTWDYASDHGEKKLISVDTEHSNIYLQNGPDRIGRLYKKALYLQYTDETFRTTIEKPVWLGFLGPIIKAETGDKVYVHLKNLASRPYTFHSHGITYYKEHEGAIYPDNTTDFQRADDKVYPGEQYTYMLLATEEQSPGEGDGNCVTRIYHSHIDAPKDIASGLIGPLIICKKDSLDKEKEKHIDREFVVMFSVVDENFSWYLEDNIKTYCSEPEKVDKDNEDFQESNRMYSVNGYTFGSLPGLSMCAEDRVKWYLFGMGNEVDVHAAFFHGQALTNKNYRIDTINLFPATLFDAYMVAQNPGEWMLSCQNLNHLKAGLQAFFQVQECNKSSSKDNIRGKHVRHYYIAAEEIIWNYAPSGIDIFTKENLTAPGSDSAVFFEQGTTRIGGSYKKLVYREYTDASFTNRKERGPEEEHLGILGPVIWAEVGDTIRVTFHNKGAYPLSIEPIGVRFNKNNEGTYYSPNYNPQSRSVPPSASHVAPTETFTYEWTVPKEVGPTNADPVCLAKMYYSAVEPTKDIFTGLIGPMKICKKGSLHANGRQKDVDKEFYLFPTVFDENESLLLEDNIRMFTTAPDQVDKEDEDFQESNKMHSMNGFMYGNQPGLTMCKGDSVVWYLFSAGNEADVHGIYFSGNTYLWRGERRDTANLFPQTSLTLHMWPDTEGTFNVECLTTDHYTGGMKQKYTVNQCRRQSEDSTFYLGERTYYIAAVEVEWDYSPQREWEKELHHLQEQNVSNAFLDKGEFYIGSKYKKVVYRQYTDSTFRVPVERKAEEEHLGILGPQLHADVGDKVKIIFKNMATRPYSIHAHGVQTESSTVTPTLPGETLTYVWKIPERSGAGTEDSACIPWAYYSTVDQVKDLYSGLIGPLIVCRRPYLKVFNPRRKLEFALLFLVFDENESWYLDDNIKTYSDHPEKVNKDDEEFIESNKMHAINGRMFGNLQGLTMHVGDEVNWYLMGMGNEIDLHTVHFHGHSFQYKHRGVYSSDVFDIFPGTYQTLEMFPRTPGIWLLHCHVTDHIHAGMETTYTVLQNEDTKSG
UniProt Q9UJA2: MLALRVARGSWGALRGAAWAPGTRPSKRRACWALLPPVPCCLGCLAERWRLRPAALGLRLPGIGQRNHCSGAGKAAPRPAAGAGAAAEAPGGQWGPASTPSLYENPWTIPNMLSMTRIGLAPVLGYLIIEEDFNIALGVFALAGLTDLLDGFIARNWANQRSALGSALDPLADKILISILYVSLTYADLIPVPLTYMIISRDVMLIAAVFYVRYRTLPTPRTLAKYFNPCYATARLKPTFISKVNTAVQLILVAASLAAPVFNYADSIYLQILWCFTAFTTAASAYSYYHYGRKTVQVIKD

The list shows a part of the results.

Holding throughout (experiment): log2 fold change, soluble protein after heating vs DMSO (PISA); higher = thermal stabilisation; K562 cells, 10 uM, 30 min; active = over 0.2 and 3.5 SD of the protein, either way, in both replicates (recomputed)
Compound in one assay: C#Cc1cccc(Nc2ncnc3cc(OCCOC)c(OCCOC)cc23)c1 [erlotinib]
Put shortly: (§1)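 Values are thermal stability changes relative to control samples and are taken from duplicates. They are stated as log2 fold changes. Before quantification by TMTpro 16plex LC-MS/MS with equalised channel sums, K562 cells at 2×10^6 cells/mL were treated with 10 μM compound for 30 min, heated in aliquots for 3 min across 48°C-58°C, pooled, extracted in PBS with 0.5% NP-40 at 4°C, and centrifuged at 21,000xg for 90 min to give the soluble supernatant.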

Compound in assay [1]: C1=CC(=C(C=C1Cl)C2=NC3=NC=CN=C3C(=N2)NC4=CC=NC=C4)F
The essentials:
as §1

Compound in assay [2]: C1=CC(=CC=C1C2=NC3=C(N2)C=C(C=C3)C(=O)N)OC4=CC=C(C=C4)Cl
The essentials: as §1

Compound in assay [3]: C1=CC2=NC=CN=C2C=C1/C=C/3\C(=O)NC(=O)S3
The essentials:
as §1

Compound in assay [4]: C1=CC=C(C=C1)C2=NC(=C(N2)C3=CC=NC=C3)C4=CC(=C(C=C4)Cl)O
The essentials:
as §1

Compound in assay [5]: C1CCN(C1)C(=O)NC2=CC=CC(=C2)NC3=NC=C(C(=N3)NCCC4=CN=CN4)Br
Put shortly:
as §1

Compound in assay [6]: C1CN(CCC1(CC2=CC=C(C=C2)Cl)N)C3=NC=NC4=C3C=CN4
The essentials:
as §1

Compound in assay [7]: C/C(=N\NC(=O)C1=CC(=CC=C1)S(=O)(=O)N2CCOCC2)/C3=C(C=CC(=C3)Cl)O
The essentials: as §1

Compound in assay [8]: C1=CC2=C(C=CC(=C2)/C=C\3/C(=O)NC(=NCC4=CC=CS4)S3)N=C1
The essentials:
as §1

Compound in assay [9]: C1=CC=C2C(=C1)C3=NNC4=CC=CC(=C43)C2=O
The essentials:
as §1

Consider COX14 (UniProt Q96I36), for which the log2 fold change in the assay with erlotinib is inactive: -0.044; in assay [1], inactive: 0.219; in assay [2], inactive: 0.037; in assay [3], inactive: 0.
Take CRY1 (UniProt Q16526): the log2 fold change was inactive: -0.033 in assay [1] and inactive: 0.012 in [4].
On to CPN1 (UniProt P15169), for which the log2 fold change was inactive: -0.161 in the assay with erlotinib; inactive: 0.064 in assay [2]; inactive: 0.081 in assay [3]; inactive: -0.035 in assay [4]; inactive: -0.007 in assay [5]; inactive: -0.11 in assay [6].
Consider CSNK1G2 (UniProt P78368), for which the log2 fold change in assay [7] is inactive: -0.164; in assay [1] it was inactive: -0.112; in assay [8], inactive: -0.093; in [9], inactive: 0.004; in assay [5], inactive: -0.125; in [6] it was inactive: 0.066.
In the case of CSNK1G1 (UniProt Q9HCP0), the log2 fold change with erlotinib is inactive: 0.056; in assay [1], inactive: -0.077; in assay [2] it was inactive: 0.068; in assay [3], inactive: 0.09; in assay [4] it was inactive: 0.14.
For the target COL2A1 (UniProt P02458), the log2 fold change is inactive: -0.085 in assay [7]; inactive: 0.093 in [8]; inactive: -0.183 in [9]; inactive: 0.105 in [5]; inactive: 0.315 in assay [6].
For the target COMMD3 (UniProt Q9UBI1), the log2 fold change in [7] was inactive: 0.054; in assay [8], inactive: 0.18; in assay [3], inactive: 0.102; in assay [4] it was inactive: 0.058; in assay [9], inactive: -0.097; in [5], inactive: -0.085. In addition, the log2 fold change in assay [6] is inactive: -0.002.
Turning to CPA4 (UniProt Q9UI42), the log2 fold change in [7] was inactive: -0.164; in [8], inactive: 0.141; in assay [9], inactive: -0.391; in assay [5], inactive: -0.224; in [6], inactive: 0.054.
As for COQ10B (UniProt Q9H8M1), the log2 fold change in [1] was inactive: 0.023; in [3], inactive: 0.03; in assay [4] it was inactive: -0.167.
For the target COL6A3 (UniProt P12111), the log2 fold change with erlotinib was inactive: 0.099; in assay [1] it was inactive: -0.008; in [2], inactive: -0.141.
As to COL25A1 (UniProt Q9BXS0), the log2 fold change was inactive: -0.211 in the assay with erlotinib, inactive: 0.301 in assay [1], inactive: 0.19 in assay [2] and inactive: -0.178 in assay [3].
As to CSNK1A1 isoform 3 (UniProt P48729), in assay [3], the log2 fold change was inactive: 0.111.
For the target CPTP (UniProt Q5TA50), the log2 fold change with erlotinib was inactive: 0.181; in assay [2], inactive: -0.181; in assay [4], inactive: -0.168.
Regarding CRTC3 (UniProt Q6UUV7), the log2 fold change in assay [1] was inactive: 0.04; in assay [3], inactive: 0.094; in assay [4], inactive: -0.146; in [5], inactive: 0.02; in assay [6], inactive: 0.075.
On to CRISP3 isoform 3 (UniProt P54108), for which the log2 fold change in [3] is inactive: -0.198.
Take CRY2 (UniProt Q49AN0): the log2 fold change in assay [7] was inactive: 0.001; in [8], inactive: 0.144; in assay [3], inactive: 0.172; in assay [9], inactive: -0.051; in [5], inactive: 0.058; in assay [6] it was inactive: -0.11.
As to COPS3 isoform 2 (UniProt Q9UNS2), the log2 fold change is inactive: -0.24 in assay [7]; inactive: -0.075 in [1]; inactive: 0.214 in assay [8]; inactive: -0.125 in assay [3]; inactive: -0.568 in assay [4]; inactive: -0.126 in assay [9]. The figures for the log2 fold change in assay [5] and in [6] were inactive: 0.176 and inactive: -0.052, respectively.
Take COMMD3-BMI1 (UniProt R4GMX3): the log2 fold change was inactive: -0.043 in assay [7]; inactive: -0.051 in assay [1]; inactive: 0.077 in assay [8]; inactive: -0.169 in [9]; inactive: -0.191 in assay [5]; inactive: 0.095 in assay [6].
In the case of CROCCP2 (UniProt Q86T23), the log2 fold change was inactive: 0.054 with erlotinib, inactive: -0.135 in assay [2], inactive: 0.079 in [3] and inactive: 0.068 in assay [4].
With CRCP (UniProt O75575), the log2 fold change in assay [1] is inactive: -0.148; in assay [3] it was inactive: 0.066; in assay [5], inactive: 0.007; in assay [6], inactive: 0.027.
In the case of COMMD6 isoform 2 (UniProt Q7Z4G1), the values for the log2 fold change (in the assay with erlotinib; in [1]; in assay [2]) were inactive: -0.028, inactive: 0.073 and inactive: -0.037, respectively.
Turning to CSGALNACT2 (UniProt Q8N6G5), the log2 fold change in [7] was inactive: 0.294; in assay [1] it was inactive: 0.073; in assay [8], inactive: -0.086; in [3], inactive: -0.052; in [9], inactive: 0.097.
Regarding COP1 (UniProt Q8NHY2), the log2 fold change in [7] is inactive: 0.13; in assay [8], inactive: -0.213; in assay [4], inactive: -0.003; in [9] it was inactive: -0.246.
For the target COQ4 (UniProt Q9Y3A0), in assay [4], the log2 fold change was inactive: 0.261.
As to CPEB4 (UniProt Q17RY0), the log2 fold change in assay [7] is inactive: -0.026; in assay [8] it was inactive: -0.01; in [3], inactive: 0.032; in assay [4], inactive: -0.075; in assay [9], inactive: -0.024; in assay [5], inactive: -0.056. In assay [6], the log2 fold change was inactive: 0.027.
In the case of CR1L (UniProt Q2VPA4), the log2 fold change with erlotinib was inactive: -0.089; in [2], inactive: 0.085.
Consider CRNN (UniProt Q9UBG3), for which the log2 fold change is inactive: 0.508 with erlotinib, inactive: -1 in assay [2] and inactive: -0.479 in [3].
Regarding CPNE5 (UniProt Q9HCH3), the log2 fold change was inactive: 0.074 with erlotinib, inactive: -0.175 in assay [2], inactive: 0.087 in assay [5] and active: -0.879 in assay [6].
In the case of CRABP2 (UniProt P29373), the log2 fold change in assay [1] is inactive: -0.158.
On to COMMD1 (UniProt Q8N668), for which the log2 fold change in the assay with erlotinib is inactive: -0.136; in [1], inactive: -0.241; in [2], inactive: 0.15; in assay [3] it was inactive: -0.088; in assay [4], inactive: 0.066; in assay [5] it was inactive: 0.037. For the same target, in assay [6], the log2 fold change is inactive: -0.083.
In the case of CP (UniProt P00450), the log2 fold change is inactive: -0.395 in assay [3] and inactive: 0.158 in [4].
For CRLS1 (UniProt Q9UJA2), the log2 fold change was inactive: -0.034 in the assay with erlotinib, inactive: 0.019 in assay [2], inactive: -0.019 in [5] and inactive: 0.074 in assay [6].
For CRYM (UniProt Q14894), the log2 fold change with erlotinib is inactive: 0.028; in assay [1] it was inactive: 0.069; in assay [2] it was inactive: -0.027; in [5] it was inactive: 0.119; in [6], inactive: 0.233.
For the target COLEC11 isoform 10 (UniProt Q9BWP8), the log2 fold change is inactive: -0.077 in [7]; inactive: -0.058 in assay [1]; inactive: 0.11 in assay [8]; inactive: 0.047 in assay [3]; inactive: -0.038 in assay [9].
